# Paper PMC4997316, “A ruthenium polypyridyl intercalator stalls DNA replication forks, radiosensitizes human cancer cells and is enhanced by Chk1 inhibition” (Scientific Reports, 2016)
# Test: octanol/water partition coefficient (Log P)
smiles,measurement,value
"O=C1c2c(O)ccc(O)c2C(=O)c2c(NCCNCCO)ccc(NCCNCCO)c21 [MX, mitoxantrone]",logP,0.36
